At least one compound was matched to its structure with a doubt left.
How the values were obtained:
[1] = tested on: primary human neutrophils; assay: fMLP-induced chemotaxis of primary human neutrophils (Boyden chamber); assay type: cell-based; details: 10 μM compound or 1 μM wortmannin, 250 nM fMLP; result in words
Experimental: Differentiated HL60 cells (200 k) were pretreated with 10 μM concentrations of the indicated compound, challenged with 250 nM fMLP, and assayed for chemotaxis in a Boyden chamber for 1 h at 37° C. […] Chemotaxis was quantified as above by subtracting out background cells (0-10 cells) in the absence of chemoattractant to obtain total transmigrated cells (−100 cells GM-CSF+vehicle) and represented as the percentage of GM-CSF-treated control cells. No statistically significant difference from control was seen by ANOVA. […] Primary human neutrophils were isolated from whole blood to ≧80% purity. […] Chemotaxis was quantified as above by subtracting out background cells to obtain total transmigrated cells and represented as the percentage of fMLP-treated control cells. […]
Chemotaxis was assayed using a Boyden chamber (Neuro Probe, Gaithersburg, Md.) using 3-μm polyvinylpyrrolidone-free polycarbonate filters (Neuro Probe). […] Chemotactic HL60 cells were scored by counting three microscope fields and subtracting the number of cells from fMLP wells as background. […] For all the small molecules, effects of the compounds on chemokinesis was analyzed by measuring chemotaxis in the presence of 250 nM fMLP in both the upper and lower chambers of the Boyden Chamber and measuring changes in transwell migration. […]

Gβ1γ2 [2] = target: T1, Gβ1γ2 (UniProt P54311+P63212); assay: Competition phage ELISA: inhibition of SIGK-phage binding to immobilized biotinylated Gβ1γ2; parameters: made in house; host or cells: Sf9 insect cells (baculovirus; co-expressed with BirA and (His)6-Gαi1, from which βγ was eluted); species or system rat; details: result in words
Experimental: Phage ELISA assays used to assess peptide binding to wild-type and mutant b-βγ were performed according to standard methods (Smrcka and Scott (2002) Methods Enzymol. 344:557-76). Briefly, 1 μg streptavidin was immobilized in the well of a […] overnight at 4° C. The wells were blocked with 100 μL of 2% bovine serum albumin (BSA) in Tris-buffered saline (TBS) for 1 hour at 4° C. followed by three washes of IX TBS/0.5% TWEEN®. […] The wells were washed, followed by the addition of IxIO^6 to IxIO^10 phage particles and incubated at 4° C. for 3 hours. […] The wells were washed, followed by the addition of 40 μL of (2,2′-Azino-bis (3-ethylbenzthiazoline)-6-sulfonic acid (ABTS) and the colorimetric reaction was monitored at 405 nm. Nonspecific binding was subtracted for each reading. […]
As disclosed herein, biotinylated Gβy subunits were immobilized on the surface of a 96-well plate coated with streptavidin, phage displaying Gβγ-binding peptides were subsequently added and binding in the presence and absence of test compounds detected with an anti-phage antibody. […]
Compounds/DMSO and 0.1×10^10 phage were added simultaneously and subsequently incubated for 1 h at room temperature. […] Phage binding was determined by monitoring A405 upon addition of 2,2′-azino-bis(3-ethylbenzothiazoline-6-sulfonic acid) (Sigma Aldrich).

[3] = tested on: NADPH oxidase activity in fMLP-challenged HL60 cells; assay: fMLP-dependent superoxide production (NBT) in differentiated HL60 cells; assay type: cell-based, human; details: 10 μM compounds or 100 nM wortmannin, 250 nM fMLP; result in words
Experimental: Differentiated HL60 cells stably expressing GFP-PH-Akt were challenged with 250 nM fMLP in the presence and absence of 10 μM concentrations of the indicated compounds. Translocation of GFP-PH-Akt to the plasma membrane was evaluated by Western blot. Quantification shown below. ***, P<0.001 analysis of variance (ANOVA) is statistically different from control (PBS+vehicle). […] Differentiated HL60 cells were challenged with 1 μM fMLP in the presence and absence of 10 μM concentrations of the indicated compounds. Rac1 activation was assessed by Western blots of affinity-precipitated GTP-Rac1 from HL60 cell lysates. Western blot shown is representative of three independent experiments and quantitation contains data pooled from three independent experiments±S.E.M. *P<0.05 ANOVA is statistically different from control (DMSO only). n=3. […] Differentiated HL60 cells were challenged with 250 nM fMLP or 250 nM PMA in the presence and absence of 10 μM compounds or 100 nM Wortmannin (Wtmn). NADPH oxidase activity was determined after reaction with NBT by absorbance at 540 nm. […]
The nitro blue tetrazolium (NBT) method was used to assess the effects of Gβγ inhibitors on NADPH oxidase activity. […] Cell pellets were then resuspended in 200 μl of DMSO, transferred to a 96-well plate, and absorbance was measured at 540 nm. […]

[4] = tested on: carrageenan-induced paw edema in mice; assay: Carrageenan-induced paw edema and neutrophil abundance; details: oral gavage 30 mg/kg 1 h before carrageenan; 3 h after carrageenan
Gβ1γ2 [5] = target: T1, Gβ1γ2; assay: Surface plasmon resonance direct binding to Gβ1γ2; parameters: made in house; host or cells: Sf9 insect cells (baculovirus); details: result in words
Text: To understand the protein binding characteristics of compounds a surface plasmon resonance (SPR) method was developed for monitoring direct small molecule binding to G βγ subunits using a Reichert SPR instrument. In addition to binding affinity, binding kinetics can be obtained from this analysis. […] To obtain the data in herein, 3000 refractive index units (RIU) of Gβ1γ2 was immobilized to maximize detection of small molecule binding (Karlsson et al., 2006; Markgren et al., 2001; Rich et al., 2001) and compounds were injected at 75 μl/min and changes in bulk refractive index were accounted for in a reference flow cell. […] This method is used to analyze compound binding kinetics and calculate equilibrium binding constants to test the mechanisms of action and selectivity of various “hot spot” binding compounds.
Direct binding of “hot spot” binding small molecules was assessed using the Reichert SR7000 Surface Plasmon Resonance dual chamber instrument equipped with an autosampler (Reichert, Depew, N.Y.). To activate the sensor chip surface, a mixture of 0.1 M 1-ethyl-3-(3-dimethylaminopropyl) carbodiimide hydrochloride and 0.05 M N-hydroxysuccinimide was injected (flow rate 5 μl/min) over the sensor surface. […] Best fit kinetic parameters were determined using kinetic titration model and ClampXP ver. […]

SMILES: COC[C@H]1OC(=O)c2coc3c2[C@@]1(C)C1=C(C3=O)[C@@H]2CCC(=O)[C@@]2(C)C[C@H]1OC(C)=O [Wortmannin, wortmannin]
- effect on fMLP-induced chemotaxis [1]: blocked

SMILES: O=C1OC2(c3ccc(O)cc3Oc3cc(O)ccc32)c2ccccc21 [fluorescein]
- competition for SIGK binding (Gβ1γ2 [2]): did compete
- effect on fMLP-dependent superoxide production [3]: did not significantly affect
- reduction of paw swelling [4]: did not reduce
- direct binding by SPR (Gβ1γ2 [5]): did not have detectable binding

— US8975259B2, “Compositions and methods for inhibiting G protein signaling” (University of Rochester, priority 2007, dated 2015)
